PubChem BioAssay AID1259405 | NCATS | 2018
Test: 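Knock-downs that lift recombinant protein yield in hamster ovary cells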 (primary screen). System: Chinese hamster CHO-K1 ovary cells with stable secreted eGFP expression. Knock-down reagent: single siRNA against mouse genes, 0.8 pmol siRNA per well (2 µl of 400 nM stock). Time to read-out: 3 days. Detection: 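Percent of the per-plate non-targeting control median for intracellular GFP per well by laser scanning cytometry and for cell viability by ATP luminescence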. Reading the numbers: GFP, % of control: higher = more GFP per well, higher productivity. Call rule: 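a knock-down is called active if GFP reaches 120% or more of non-targeting control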.
The deposit covers about 50,000 reagents; below is a random part of them. Of all reagents, about 4,000 (8%) were called active. 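Mouse siRNA library applied to hamster cells; one well for each siRNA.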 The numbers tell different reagents against one gene apart. Not all columns of the deposit are shown.

GFP, % of control, by gene symbol and reagent
Adamts6 (GeneID 108154): #1 94.1 inactive; #2 69.9 inactive; #3 92.4 inactive
Lemd2 (GeneID 224640): #1 56.1 inactive; #2 71.6 inactive; #3 57.4 inactive
Rfesd (GeneID 218341): #1 134 active; #2 97.6 inactive; #3 70.7 inactive
Slc7a1 (GeneID 11987): #1 63.8 inactive; #2 122 active; #3 55.4 inactive
Slc33a2 (GeneID 69572): #1 91.1 inactive; #2 38.8 inactive; #3 76.3 inactive
Proser3 (GeneID 333193): #1 110 inactive; #2 149 active; #3 83.9 inactive
Taf10 (GeneID 24075): #1 115 inactive; #2 122 active; #3 215 active
Rab3d (GeneID 19340): #1 149 active; #2 105 inactive
Foxb1 (GeneID 64290): #1 102 inactive; #2 110 inactive
Nnmt (GeneID 18113): #1 80.8 inactive; #2 110 inactive; #3 83.6 inactive
Pofut1 (GeneID 140484): #1 64.4 inactive; #2 166 active; #3 75.4 inactive; #4 68.2 inactive; #5 74.3 inactive
Or14c44 (GeneID 257958): #1 26.6 inactive; #2 66.4 inactive; #3 129 active
Or8k23 (GeneID 259020): #1 96 inactive; #2 138 active; #3 85.7 inactive
Med17 (GeneID 234959): #1 90.8 inactive; #2 78.9 inactive
Igfbp3 (GeneID 16009): #1 83.8 inactive; #2 79 inactive; #3 88.3 inactive
Fgfbp3 (GeneID 72514): #1 67.1 inactive; #2 30.5 inactive; #3 65.4 inactive
Pilra (GeneID 231805): #1 168 active; #2 76.1 inactive; #3 95.9 inactive
Mark2 (GeneID 13728): #1 73.8 inactive; #2 116 inactive; #3 69.6 inactive
Lrrc40 (GeneID 67144): #1 8.41 inactive; #2 140 active; #3 62.6 inactive
Or2ag1 (GeneID 259034): #1 93.9 inactive; #2 80.8 inactive; #3 66.8 inactive
Helq (GeneID 191578): #1 36.4 inactive; #2 57.3 inactive; #3 39.3 inactive
Tgtp1 (GeneID 21822): #1 41.9 inactive; #2 84 inactive; #3 83.4 inactive
Slc2a1 (GeneID 20525): #1 72.4 inactive; #2 79.9 inactive; #3 75.9 inactive
Ang (GeneID 11727): #1 138 active; #2 93.8 inactive; #3 41 inactive
Kdm4a (GeneID 230674): #1 0.524 inactive; #2 75.1 inactive; #3 106 inactive
Dixdc1 (GeneID 330938): #1 66.5 inactive; #2 63.9 inactive; #3 55.9 inactive
Spaca1 (GeneID 67652): #1 138 active; #2 114 inactive; #3 108 inactive
Grin2d (GeneID 14814): #1 54.3 inactive; #2 52.6 inactive; #3 53.3 inactive
Krtap4-7 (GeneID 76444): #1 70.8 inactive; #2 73.8 inactive; #3 101 inactive

Reagents listed so far called active:
GFP, % of control, by gene symbol and reagent
Rfesd (GeneID 218341): #1 134 active
Slc7a1 (GeneID 11987): #2 122 active
Proser3 (GeneID 333193): #2 149 active
Taf10 (GeneID 24075): #2 122 active; #3 215 active
Rab3d (GeneID 19340): #1 149 active
Pofut1 (GeneID 140484): #2 166 active
Or14c44 (GeneID 257958): #3 129 active
Or8k23 (GeneID 259020): #2 138 active
Pilra (GeneID 231805): #1 168 active
Lrrc40 (GeneID 67144): #2 140 active
Ang (GeneID 11727): #1 138 active
Spaca1 (GeneID 67652): #1 138 active
